For one substance, binding results are on record in paper PMC5078848, “NtKRP, a kinesin-12 protein, regulates embryo/seed size and seed germination via involving in cell cycle progression at the G2/M transition” (Scientific Reports, 2016).

This assay deals with NtKRP fragment including both phosphorylation sites (1–2262 bp), pGBKT7 fusion (Nicotiana tabacum). Description: two-hybrid; Matchmaker GAL4 system; NtKRP fragments in pGBKT7-Rec, CDKA;1 in pGADT7-Rec; yeast AH109 co-transformed; growth on SD/-Leu/Trp/His/Ade.

No constants are given. Whether binding was seen depends on the method and setting. Binding can be weak; no strength is given.

“CDKA;1, pGADT7 fusion (from UniProt Q40482) (enzyme)”: the binding result is listed as “binds”.
